Results are given in words; binding and its absence hold for the method and conditions named. Binding seen in cells or lysates may run through a third protein. Some entries that bind do so weakly or less than the wild type.

The chains behind the UniProt entries cited, without tags or fusion partners.
UniProt P09874: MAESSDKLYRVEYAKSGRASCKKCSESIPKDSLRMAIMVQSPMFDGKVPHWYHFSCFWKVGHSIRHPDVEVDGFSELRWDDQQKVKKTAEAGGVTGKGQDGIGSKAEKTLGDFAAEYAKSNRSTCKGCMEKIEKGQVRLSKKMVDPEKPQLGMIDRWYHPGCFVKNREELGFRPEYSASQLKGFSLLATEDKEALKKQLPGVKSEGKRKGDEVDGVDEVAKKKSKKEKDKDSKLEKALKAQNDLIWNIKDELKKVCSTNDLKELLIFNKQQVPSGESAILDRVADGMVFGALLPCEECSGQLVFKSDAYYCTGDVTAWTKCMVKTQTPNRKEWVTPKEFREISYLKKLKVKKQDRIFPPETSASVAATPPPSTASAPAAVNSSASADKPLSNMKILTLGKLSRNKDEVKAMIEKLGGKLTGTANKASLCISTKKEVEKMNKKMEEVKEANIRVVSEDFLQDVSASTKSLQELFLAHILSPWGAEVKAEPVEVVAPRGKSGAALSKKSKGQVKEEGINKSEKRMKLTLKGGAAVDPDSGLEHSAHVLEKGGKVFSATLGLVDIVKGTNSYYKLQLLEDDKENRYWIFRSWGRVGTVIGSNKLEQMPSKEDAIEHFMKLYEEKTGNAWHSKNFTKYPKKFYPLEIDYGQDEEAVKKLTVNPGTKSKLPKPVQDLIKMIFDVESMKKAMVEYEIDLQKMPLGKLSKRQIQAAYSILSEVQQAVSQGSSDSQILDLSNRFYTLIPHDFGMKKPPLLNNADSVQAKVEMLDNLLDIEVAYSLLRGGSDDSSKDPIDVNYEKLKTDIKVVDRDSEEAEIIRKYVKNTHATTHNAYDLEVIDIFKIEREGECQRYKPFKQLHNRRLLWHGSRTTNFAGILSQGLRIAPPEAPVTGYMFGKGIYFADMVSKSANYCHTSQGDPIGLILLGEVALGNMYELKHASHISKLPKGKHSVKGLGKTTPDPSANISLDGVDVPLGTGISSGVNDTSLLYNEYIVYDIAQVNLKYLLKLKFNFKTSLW
UniProt O75475: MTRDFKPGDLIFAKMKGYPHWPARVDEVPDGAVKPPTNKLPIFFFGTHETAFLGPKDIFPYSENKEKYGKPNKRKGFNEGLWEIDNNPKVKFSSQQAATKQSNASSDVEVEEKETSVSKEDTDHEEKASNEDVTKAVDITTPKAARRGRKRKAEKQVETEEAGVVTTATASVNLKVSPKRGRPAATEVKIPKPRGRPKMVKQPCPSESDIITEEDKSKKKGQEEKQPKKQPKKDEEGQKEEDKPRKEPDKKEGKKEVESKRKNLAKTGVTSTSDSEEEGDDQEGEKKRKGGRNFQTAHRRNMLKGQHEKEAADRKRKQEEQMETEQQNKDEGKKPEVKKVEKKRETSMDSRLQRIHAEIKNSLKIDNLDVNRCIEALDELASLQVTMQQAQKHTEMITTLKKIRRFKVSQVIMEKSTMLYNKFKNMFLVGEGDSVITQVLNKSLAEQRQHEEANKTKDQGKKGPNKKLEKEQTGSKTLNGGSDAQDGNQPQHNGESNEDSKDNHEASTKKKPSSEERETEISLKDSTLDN

In one test the target is eGFP-PARP1 (UniProt P09874). Kind of test: co-IP; eGFP-PARP1 captured on GFP-trap beads from cells expressing HA-PSIP1/p75 or HA-p52; blots with αGFP, αHA, γ-H2AX and PCNA antibodies.
Test [1] concerns the target PSIP1 (PC4 and SF2 interacting protein) (human (endogenous in RWPE-1)) (UniProt O75475). Kind of test: co-IP; anti-PSIP1 IP from nuclear extract in the presence of benzonase; Protein-A Dynabeads, overnight at 4 °C, washed in NP-40 lysis buffer (50 mM Tris-HCl pH 8.0, 150 mM KCl, 1% NP-40); IgG as negative control; western blot. Background: A western blot detects proteins with antibodies after separation by electrophoresis.

The target in test [2] is γ-H2AX (human (endogenous in HEK293T)) (UniProt P16104). Kind of test: co-IP; γ-H2AX IP from HEK293T extracts (control and PSIP1 KD; DMSO or camptothecin 10 μM, 2 h; with or without RNASEH1 overexpression); IgG as negative control; blot for PSIP1/p75.

Consider “HA-PSIP1/p75 (from UniProt O75475 1-530)”, for which the binding entry in the test with eGFP-PARP1 was “binds”.
In the case of PARP1 (from UniProt P09874 1-1014), in test [1], the binding entry is listed as “binds”.
On to PSIP1/p75 (from UniProt O75475 1-530), for which the binding entry in test [2] was “binds”.

Source of the values: article PMC10774266.
